According to PubChem BioAssay AID1347075 (National Center for Advancing Translational Sciences (NCATS), 2019):
Out of some 400,000 compounds screened, about 5,500 (1.4%) were called active. Inconclusive results, whose numbers are uncertain, are shown with a selection of clear calls. Calls follow the shape of the dose curve; as a rule, active = well fitted cell-killing curve with a large enough effect; inconclusive = small, poorly fitted or top-dose-only effect, or effect the other way; inactive = flat fitted curve, though single readings scatter. Where the call is inconclusive, the potency comes from a doubtful curve fit.

experiment: qHTS assay for MDR1-selective chemotherapeutics: Primary screen using the parental adenocarcinoma cell KB-3-1; settings: KB-3-1 viability, CellTiter-Glo ATP luminescence, 72 h; activity change, negative = cytotoxic: at 46.1 µM (top of the series); also: nearly all actives have a fitted effect of over 60% in size
Outline: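 KB-3-1 parental drug-naive adenocarcinoma cells in DMEM/10% FBS, incubated 72 h at 37 C with pin-transferred compounds across a concentration series. Viability by CellTiter-Glo luminescence; concentration-response curves fitted after normalization.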
% is scaled to controls: 0 for no effect and ±100 for the full control effect; potency is read from the fitted curve at half-maximal effect.

Row | Compound | Potency | activity change, negative = cytotoxic
1 | Cc1cccc(OCCSc2cc(C)nc(N)n2)c1 | inconclusive: 25.9 µM [cytotoxic, single point] | 
2 | CCOC(=O)[C@]12CCC=C1N(Cc1cccc3ccccc13)C(=O)[C@H](CC(=O)NCc1cccc3ccccc13)C2 |  | inactive: -24.6%
3 | O=C(Cn1c(=O)oc2ccccc21)N(Cc1ccccc1)C1CCS(=O)(=O)C1 (configuration not stated) |  | inactive: -2.43%
4 | CC(C)c1ccc(NC(=O)CN2CCN(c3ccccn3)CC2)cc1 |  | inactive: -1.39%
5 | CCOCCn1c(CN2CCN(C(=O)c3ccco3)CC2)nc2c1c(=O)n(C)c(=O)n2C |  | inactive: 0%
6 | Cc1ccc(C2=NC(C)(C)N=C2SCC(=O)Nc2ccc(Cl)cc2)cc1 |  | inactive: -15%
7 | Cc1nnc(C)c2c(C)n(C(C)c3ccccc3)c(C)c12 (configuration not stated) | inconclusive: 29.1 µM [cytotoxic, single point] | 
8 | COc1ccc(CN2CCN(Cc3ccc(Br)cc3)CC2)c(OC)c1OC |  | inactive: -28.6%
9 | O=C(CSc1nc(-c2cccs2)cc(C(F)(F)F)n1)Nc1cc(OCC(F)(F)C(F)F)cc([N+](=O)[O-])c1 | inconclusive: 18.4 µM [cytotoxic, partial curve] | 
10 | CCOC(=O)c1sc2nccc(N(C)C)c2c1N=CNOCc1ccccc1 | inconclusive: 29.1 µM [cytotoxic, single point] | 
11 | COc1ccc(N(C(=O)Cn2nnc(-c3ccc(F)cc3)n2)C(C)C(=O)NC2CCCC2)cc1 (configuration not stated) |  | inactive: -0.325%
12 | CCOc1ccc(C(=O)N2CCc3cc(OC)c(OC)cc3C2COc2ccc3c(C)cc(=O)oc3c2)cc1OCC (configuration not stated) |  | inactive: 1.93%
13 | CS(=O)(=O)Nc1cccc2cccnc12 | inconclusive: 20.6 µM [cytotoxic, single point] | 
14 | COc1ccc(-c2cc(-c3ccc(O)cc3)nc(N)c2C#N)cc1OC | inconclusive: 29.1 µM [cytotoxic, single point] | 
15 | Cc1nn(Cc2ccc(Cl)c(Cl)c2)c(C)c1NC(=O)c1cc(-c2ccc3c(c2)OCO3)on1 | inconclusive: 20.6 µM [cytotoxic, single point] | 
16 | Cc1sc2ncnc(N3CCN(C(=O)c4ccco4)CC3)c2c1C | inconclusive: 18.4 µM [cytotoxic, single point] | 
17 | O=C(N/N=C/c1cc([N+](=O)[O-])ccc1O)c1ccc2c(c1)OCCO2 | inconclusive: 18.4 µM [cytotoxic, single point] | 
18 | Cc1ccc(N2CC(C(=O)OCC(=O)c3c(N)n(CC(C)C)c(=O)n(C)c3=O)CC2=O)cc1 (configuration not stated) |  | inactive: -4.43%
19 | CC1CCc2c(sc3nc(SCC(=O)NCc4ccco4)nc(N)c23)C1 (configuration not stated) | inconclusive: 29.1 µM [cytotoxic, single point] | 
20 | COc1ccccc1N1CCN(S(=O)(=O)c2cccs2)CC1 |  | inactive: -20.8%
21 | O=C(Cc1csc(N2CCOCC2)n1)N/N=C/c1ccc(O)c(O)c1O | inconclusive: 0.0092 µM [cytotoxic, full curve] | 
22 | CCCCNC(=O)N(O)C1N(/N=C/c2ccco2)C(=S)SC1(C)C (configuration not stated) |  | inactive: -0.753%
23 | Cc1cc(SCC#N)n2nc(C)c(-c3ccccc3)c2n1 | inconclusive: 20.6 µM [cytotoxic, single point] | 
24 | CCc1ccc(-c2n[nH]nc2C2=CC(=O)C[C@H](c3ccc(F)cc3)C2)cc1 | inconclusive: 29.1 µM [cytotoxic, single point] | 

Row | Compound | Potency | activity change, negative = cytotoxic
25 | O=C(Nc1ccc(Oc2cccc3ccccc23)cc1)c1ccco1 | inconclusive: 32.6 µM [cytotoxic, partial curve, poor fit] | 
26 | Cc1cccc(NS(=O)(=O)c2cc(C(=O)NCc3ccccn3)ccc2C)c1 | inconclusive: 29.1 µM [rising, single point] | 
27 | Cc1ccc(NC(=O)CCCc2nc3ccccc3s2)c(O)c1 |  | inactive: 11.6%
28 | O=C(CCCCn1c(=O)c2ccccc2n(Cc2ccc(F)cc2Cl)c1=O)NCCc1ccc(Cl)cc1 |  | inactive: 0.767%
29 | c1ccc(-c2ccc(-c3cn4c(n3)CCC4)cc2)cc1 | inconclusive: 7.31 µM [cytotoxic, partial curve] | 
30 | CC(C)(C)CC(C)(C)N=C1Nc2ccc(Cl)cc2NC12C[C@H]1CCC(=O)N3CC[C@@H](C2)[C@@H]13 (some centres not stated) | inconclusive: 29.1 µM [cytotoxic, single point] | 
31 | O=C(CN1C(=O)C(c2ccc(F)cc2)=NC12CCCC2)Nc1ccc(F)cc1 | inconclusive: 10.3 µM [cytotoxic, partial curve, poor fit] | 
32 | Cc1ccccc1C(=O)Nc1cccc(C(=O)N/N=C/c2ccc3c(c2)OCO3)c1 | inconclusive: 29.1 µM [cytotoxic, single point] | 
33 | Cc1ccc(-n2c(-c3ccc(Cl)cc3)c[n+]3c2CCC3)cc1 | active: 4.61 µM | 
34 | COc1ccc(C=O)cc1CSc1ncccc1C(=O)O |  | inactive: -0.331%
35 | COc1ccc(OC)c(C2=CC(=O)C[C@H](c3ccc4c(c3)OCO4)C2)c1 | active: 10.3 µM | 
36 | COc1cccc(OC)c1C(=O)OCc1c(-c2ccccc2)ncc2ccccc12 |  | inactive: 0.969%
37 | Fc1ccccc1CNC(=S)Nc1cccc(C(F)(F)F)c1 | inconclusive: 29.1 µM [cytotoxic, single point] | 
38 | COc1cc(CNCCc2ccccc2)cc(Br)c1OCC(=O)Nc1ccccc1C |  | inactive: 0%
39 | CCc1ccc(C2=NN(c3ccc(S(N)(=O)=O)cc3)C(c3ccc(F)cc3)C2)cc1 (configuration not stated) | inconclusive: 29.1 µM [cytotoxic, single point] | 
40 | O=C(c1ccc2c(c1)OCO2)N1CCN(c2ccc(C(F)(F)F)cn2)CC1 |  | inactive: 0.494%
41 | COc1cc(OC)nc(Nc2nc(C(N)Cc3ccc(Cl)cc3)cs2)n1 (configuration not stated) | inconclusive: 29.1 µM [cytotoxic, single point] | 
42 | COc1ccc(C(=O)N/N=C(\C)c2cccc(NC(=O)c3ccc(F)cc3)c2)c(OC)c1 | inconclusive: 23.1 µM [rising, single point] | 
43 | Cc1c(-c2nc(N)nc(Nc3ccc(F)cc3)n2)oc2ccccc12 | inconclusive: 29.1 µM [cytotoxic, single point] | 
44 | COc1ccc(-c2nn3c(-c4cc(-c5ccccc5)n[nH]4)nnc3s2)cc1OC |  | inactive: 23.5%
45 | COc1ccc(Cl)cc1NC(=O)CNC(c1ccccc1)c1ccccc1 | inconclusive: 16.4 µM [cytotoxic, single point] | 
46 | COc1cc(C)ccc1OCCCCOc1ccccc1C(C)=O | inconclusive: 5.8 µM [cytotoxic, partial curve, poor fit] | 
47 | COc1ccc(C2c3ccc4ccccc4c3Oc3ncn(CCN4CCOCC4)c(=N)c32)cc1 (configuration not stated) | inconclusive: 29.1 µM [cytotoxic, single point] | 
48 | CC(C)c1ccccc1NC(=O)COC(=O)C1(C)CC1(Cl)Cl (configuration not stated) |  | inactive: 8.57%

Gathered by group: the entries above with a Cl atom (8)
Row | Compound | Potency | activity change, negative = cytotoxic
6 | Cc1ccc(C2=NC(C)(C)N=C2SCC(=O)Nc2ccc(Cl)cc2)cc1 |  | inactive: -15%
15 | Cc1nn(Cc2ccc(Cl)c(Cl)c2)c(C)c1NC(=O)c1cc(-c2ccc3c(c2)OCO3)on1 | inconclusive: 20.6 µM [cytotoxic, single point] | 
28 | O=C(CCCCn1c(=O)c2ccccc2n(Cc2ccc(F)cc2Cl)c1=O)NCCc1ccc(Cl)cc1 |  | inactive: 0.767%
30 | CC(C)(C)CC(C)(C)N=C1Nc2ccc(Cl)cc2NC12C[C@H]1CCC(=O)N3CC[C@@H](C2)[C@@H]13 (some centres not stated) | inconclusive: 29.1 µM [cytotoxic, single point] | 
33 | Cc1ccc(-n2c(-c3ccc(Cl)cc3)c[n+]3c2CCC3)cc1 | active: 4.61 µM | 
41 | COc1cc(OC)nc(Nc2nc(C(N)Cc3ccc(Cl)cc3)cs2)n1 (configuration not stated) | inconclusive: 29.1 µM [cytotoxic, single point] | 
45 | COc1ccc(Cl)cc1NC(=O)CNC(c1ccccc1)c1ccccc1 | inconclusive: 16.4 µM [cytotoxic, single point] | 
48 | CC(C)c1ccccc1NC(=O)COC(=O)C1(C)CC1(Cl)Cl (configuration not stated) |  | inactive: 8.57%

Arranged by formula weight (smallest number first): 3 of the compounds above
Row | Compound | Potency | activity change, negative = cytotoxic
29 | c1ccc(-c2ccc(-c3cn4c(n3)CCC4)cc2)cc1 | inconclusive: 7.31 µM [cytotoxic, partial curve] | 
37 | Fc1ccccc1CNC(=S)Nc1cccc(C(F)(F)F)c1 | inconclusive: 29.1 µM [cytotoxic, single point] | 
48 | CC(C)c1ccccc1NC(=O)COC(=O)C1(C)CC1(Cl)Cl (configuration not stated) |  | inactive: 8.57%

Later entries

Row | Compound | Potency | activity change, negative = cytotoxic
49 | COc1ccc(C2c3ccc4ccccc4c3Oc3ncn(CCCO)c(=N)c32)cc1OC (configuration not stated) | inconclusive: 20.6 µM [cytotoxic, single point] | 
50 | CCCC(O)(c1ccc(Cl)cc1)C(CN1CCOCC1)c1ccccc1 (configuration not stated) |  | inactive: -18.5%
51 | Cc1cc(C)c(Cn2c(=O)n(-c3ccccc3Cl)c(=O)c3c(C)c(C(=O)N(C)C)sc32)c(C)c1 |  | inactive: -0.989%
52 | O=S(=O)(NC(=S)c1ccccc1)c1ccc(Cl)cc1 |  | inactive: 6.1%
53 | CC(=O)c1c(C)oc2ccc(NS(=O)(=O)c3ccc(C(C)C)cc3)cc12 | active: 20.6 µM | 
54 | COc1cc(/C=C/C(=O)OCC(=O)NC2CCCCCCC2)ccc1O |  | inactive: 0.202%
55 | CC(C)C1C(=O)N(Cc2cn(Cc3ccco3)nn2)CCS(=O)(=O)N1Cc1ccc(-c2ccc(Cl)cc2)cc1 (configuration not stated) | inconclusive: 18.4 µM [cytotoxic, single point] | 
56 | COc1cccc(-c2cc(C(=O)Nc3ccc4c(c3)OCO4)no2)c1 | inactive | 
57 | COc1ccccc1-c1c(C#N)c(N)nc2c1CCc1ccccc1-2 | active: 13 µM | 
58 | CCCC[C@@H]1CNC(=O)C(=O)N1CCc1cc(C(F)(F)F)cc(C(F)(F)F)c1 |  | inactive: 18.2%
59 | Cn1c(=O)c2sccc2n2c(CCC(=O)Nc3ccc(F)cc3)nnc12 |  | inactive: -2.08%
60 | C=CCn1c(COc2cccc(C)c2C)nnc1SCC(=O)N1CCN(c2ccccc2)CC1 | inconclusive: 29.1 µM [cytotoxic, single point] | 
61 | COc1cc(NC(=O)c2cccc3c(-c4cccnc4)coc23)cc(OC)c1OC | inconclusive: 29.1 µM [cytotoxic, single point] | 
62 | N/C(=N\OC(=O)c1ccc2ccccc2c1)c1ccccc1Cl | inconclusive: 18.4 µM [cytotoxic, single point] | 
63 | CCC/C=C(\CCC)C(NS(=O)(=O)c1cccc2cccnc12)c1ccc(C(=O)OC)cc1 (configuration not stated) | inconclusive: 29.1 µM [cytotoxic, single point] | 
64 | O=C1CCCN1CCCNc1ncnc2c1cnn2-c1ccc(Cl)cc1 | inconclusive: 10.3 µM [cytotoxic, partial curve, poor fit] | 
65 | CCOP(=O)(OCC)c1cccc(P(=O)(c2ccccc2)c2ccccc2)c1O |  | inactive: -1.83%
66 | Clc1cccc(OCCCCN2CCCCC2)c1 |  | inconclusive: -41.1%
67 | COc1ccccc1NC(=O)CN1CCN(CC(=O)Nc2ccc(F)c(F)c2)CC1 |  | inactive: -9.87%
68 | O=C(NC(=S)Nc1ccc2oc(=O)ccc2c1)c1cccc(F)c1 |  | inconclusive: -46.3%
69 | COc1ccc(Cl)cc1S(=O)(=O)N1CCN=C1C | inconclusive: 18.4 µM [cytotoxic, partial curve, poor fit] | 
70 | COc1ccc2c(c1)c(=O)c(C(=O)c1ccc(C)cc1)cn2Cc1ccccc1F | inconclusive: 13 µM [cytotoxic, partial curve, poor fit] | 
71 | O=C(NCCc1ccccc1)C1Cc2c(-c3ccccc3)ccnc2O1 (configuration not stated) | inconclusive: 18.4 µM [cytotoxic, partial curve] | 
72 | CC(C)N(Cc1nccn1C)C(=O)c1ccc2oc(CCCc3ccccc3)nc2c1 | inconclusive: 20.6 µM [cytotoxic, single point] | 
